According to PubChem BioAssay AID540256 (National Center for Advancing Translational Sciences (NCATS), 2011):
Among all 300,000 compounds or so, about 3,700 (1.2%) were called active. The inconclusive results got no clear call from the source; some entries with a clear call stand among them for comparison. Calls follow the shape of the full dose curve; tested in HEK293 cells. A potency beside an inconclusive call is a rough fit, not a confirmed value.

assay: qHTS for Inhibitors of binding or entry into cells for Lassa Virus; settings: Lassa virus pseudotype entry inhibition, cell reporter; activity change, negative = inhibition: at 37.9 µM (top of the series) unless noted; also: nearly all actives have a fitted effect of over 50% in size
% is scaled to controls: 0 for no effect and ±100 for the full control effect; potency is read from the fitted curve at half-maximal effect.

Row | Compound | activity change, negative = inhibition | Potency
1 | COC(=O)c1ccc(C(=O)OC)c(NC(=O)/C=C/C(=O)O)c1 | inactive: 0.316% | –
2 | Cc1ccc(NC(=O)c2ccc(OCC3CCCO3)cc2)cc1 (stereo not drawn) | – | inconclusive: 14.6 µM [inhibitor, partial curve]
3 | Cc1ccc(C)c(NC(=O)c2ccccc2O)c1 | inactive: -19.9% | –
4 | COc1ccc(CSc2nnc(N)s2)cc1F | inactive: 23.3% | –
5 | CC(C)COC(=O)N1CCN(S(=O)(=O)c2ccc3c(c2)CCC3)CC1 | – | inconclusive: 35.5 µM [inhibitor, partial curve, poor fit]
6 | COc1cccc(-c2nnc(SCc3ccccn3)n2C)c1 | – | inconclusive: 23.1 µM [activator, single point]
7 | COCCNC(=O)NC1(C(F)(F)F)Oc2ccc(Cl)cc2O1 (stereo not drawn) | – | inconclusive: 29.1 µM [inhibitor, single point]
8 | O=C(N/N=C/c1ccc(Cl)cc1)c1cc(-c2cccnc2)nc2ccccc12 | inactive: 11.3% | –
9 | O=C(Nc1cnccn1)c1csc2ccccc12 | – | inconclusive: 0.0046 µM [activator, full curve, poor fit]
10 | COC(=O)c1ccc(C(=O)OC)c(NC(=O)COC(=O)C23CC4CC(CC(O)(C4)C2)C3)c1 | – | inconclusive: 0.651 µM [activator, partial curve, poor fit]
11 | CC(=Nc1ccccc1N)c1c(O)n(C)c(=O)[nH]c1=O | inactive: 1.25% | –
12 | COc1ccccc1Nc1nn2c(=O)c3ccc(C(=O)NCc4cccs4)cc3nc2s1 | – | inconclusive: 1.41 µM [inhibitor, full curve, poor fit]
13 | COc1ccc2c(c1)-c1c(ssc1=S)C(C)(C)N2S(=O)(=O)c1ccc(C)cc1 | – | inconclusive: 7.08 µM [inhibitor, full curve, poor fit]
14 | CC(C)n1c(=O)c(C=Nc2ccc(F)cc2)c(O)n(Cc2ccco2)c1=O | – | inconclusive: 35.5 µM [inhibitor, single point]
15 | O=C(c1ccc(Br)o1)N(c1ccccn1)C1CCCCC1 | – | inconclusive: 20 µM [activator, single point]
16 | COc1ccc(CNC(=O)C(c2ccncc2)N(C(=O)Cc2cccs2)c2cccc(C)c2)cc1 (stereo not drawn) | – | inconclusive: 1.3 µM [inhibitor, full curve]
17 | COC(=O)[C@@H](NC(=O)c1ccc2c(c1)S(=O)(=O)c1ccccc1C2=O)C(C)C | – | inconclusive: 8.91 µM [inhibitor, partial curve, poor fit]
18 | COc1cccc(Cn2c(-c3nonc3N)nc3ccccc32)c1 | – | inconclusive: 3.55 µM [inhibitor, single point]
19 | CCN(C(=O)CSc1ncc(S(=O)(=O)c2ccc(C)c(Cl)c2)c(=O)[nH]1)c1cccc(C)c1 | inactive: -8.12% [at 46.1 µM] | –
20 | O=C(Nc1ccc2ccccc2c1)c1cc(F)c(F)cc1Cl | – | inconclusive: 35.5 µM [inhibitor, single point]
21 | Cc1ccc(NC(=S)NCc2ccc3c(c2)OCO3)cc1 | – | inconclusive: 0.891 µM [inhibitor, full curve]
22 | COCCN(C(=O)CSc1nnc(Nc2ccc(C)cc2)s1)c1c(N)n(CC(C)C)c(=O)[nH]c1=O | – | inconclusive: 5.62 µM [inhibitor, full curve]
23 | COc1ccc(N2CCN(C(=O)c3cn(C4CCCC4)c(=O)c4c3c3ccccc3n4C)CC2)cc1 | – | inconclusive: 14.1 µM [inhibitor, partial curve]

Row | Compound | activity change, negative = inhibition | Potency
24 | CCOc1ccccc1NC(=S)NC(=O)C1CC1 | – | inconclusive: 1.26 µM [inhibitor, single point]
25 | COc1ccc(CNC(=O)C2CCN(c3nc(-c4ccccc4)nc4c3CCC4)CC2)cc1 | – | inconclusive: 7.08 µM [inhibitor, partial curve, poor fit]
26 | Cc1cc(C)cc(C(=O)N(Cc2nc(-c3ccc(Cl)cc3)no2)C(C)C)c1 | – | inconclusive: 5.01 µM [activator, full curve, poor fit]
27 | COc1ccc(OCc2cn(CC(=O)c3ccc(O)cc3)nn2)cc1 | inactive: 5.28% [at 46.1 µM] | –
28 | CCOC(=O)C1(CCCc2ccccc2)CCN(C(=O)C(C)n2cncn2)CC1 (stereo not drawn) | – | inconclusive: 35.5 µM [inhibitor, partial curve, poor fit]
29 | COc1ccc(NC(=O)CC(c2ccc(F)cc2)c2ccc(OC(C)C)cc2)cc1 (stereo not drawn) | – | inconclusive: 15.8 µM [inhibitor, partial curve, poor fit]
30 | CCN(CCCNC(=O)CN1C(=O)COc2ccc(S(=O)(=O)N3CCC(C)CC3)cc21)Cc1ccccc1 | – | inconclusive: 35.5 µM [inhibitor, single point]
31 | N#CC(=C1CCCC1)c1nc(-c2ccccc2O)cs1 | – | active: 10 µM
32 | N#CCSc1nc2[nH]ncc2c(=O)n1-c1ccccc1Br | inactive: 11.7% | –
33 | CC(Sc1nnc(-c2ccc(Cl)cc2Cl)n1Cc1ccccc1)C(=O)Nc1nccs1 (stereo not drawn) | – | inconclusive: 0.58 µM [inhibitor, single point]
34 | COc1ccc(-c2[nH]c(-c3ccc(C)cc3)nc2SCC(=O)NC2CCCC2)cc1 | – | inconclusive: 18.4 µM [inhibitor, single point]
35 | O=C(N/N=C/c1ccc([N+](=O)[O-])o1)c1ccc(NS(=O)(=O)c2cccs2)cc1 | – | inconclusive: 35.5 µM [inhibitor, single point]
36 | CCCCCC1CC(CC#CCN2CCOCC2)C(=O)O1 (stereo not drawn) | inactive: -19% [at 14.3 µM] | –
37 | Cc1onc(-c2c(Cl)cccc2Cl)c1-c1nnc(-c2ccc(Cl)cc2)o1 | – | inconclusive: 14.1 µM [inhibitor, single point]
38 | CC(=O)N1Cc2cc([N+](=O)[O-])ccc2Oc2ccccc21 | – | inconclusive: 8.91 µM [inhibitor, partial curve, poor fit]
39 | Cc1ccc(OCc2nc(-c3cccnc3)no2)cc1C | – | inconclusive: 35.5 µM [inhibitor, single point]
40 | Cc1ccc(NC(=O)CS(=O)(=O)c2nc(-c3ccc(C)cc3)cn2-c2ccc(C)cc2)cc1 | – | inconclusive: 1.78 µM [inhibitor, partial curve, poor fit]
41 | FC(F)(F)c1ccccc1/C=N/n1c(COc2ccccc2)n[nH]c1=S | – | inconclusive: 10 µM [inhibitor, partial curve]
42 | Cc1nnc(SCC(=O)Nc2ccc(Oc3ccccc3)cc2)n1N | inactive: -16.3% | –
43 | CCOc1ccc(OCCOC(=O)CN2C(=O)NC3(CCCC3)C2=O)cc1 | inactive: -18.1% | –
44 | Cc1ccc(-c2noc(CSc3ccccc3)n2)cc1 | inactive: -21% | –
45 | CC(C)CN=Cc1c(O)c([N+](=O)[O-])cc2oc3c(c12)CCCC3 | inactive: -16.1% | –
46 | Cc1ccc(NC(=O)c2ncn(-c3ccccc3)n2)cc1Cl | inactive: 2.32% [at 46.1 µM] | –

Row | Compound | activity change, negative = inhibition | Potency
47 | Nc1cnn(C2OC(CO)C(O)C2O)c(=O)n1 (stereo not drawn) | – | inconclusive: 10 µM [inhibitor, partial curve, poor fit]
48 | CCC(=O)Nc1cc(NC(=O)CSc2ncc(-c3ccc(F)cc3)n2Cc2ccco2)ccc1C | – | inconclusive: 35.5 µM [inhibitor, single point]
49 | COc1ccc(Cl)cc1C(=O)CSc1nnnn1C1CCCC1 | inactive: -2.34% | –
50 | CC(C)(CN=C1NS(=O)(=O)c2ccccc21)CNC(=O)CN1C(=O)c2ccccc2C1=O | inactive: 16.1% | –
51 | OCCC1CN(Cc2ccon2)CCN1CCc1ccccc1 (stereo not drawn) | inactive: 6.35% [at 46.1 µM] | –
52 | Cc1cc(=O)oc(C)c1C(=O)OCC(=O)c1ccc2ccccc2c1 | – | inconclusive: 23.1 µM [inhibitor, single point]
53 | Cc1cc(C)c(NC(=O)CS(=O)CC(=O)Nc2ccc(-n3cnnn3)c(C)c2)c(C)c1 (stereo not drawn) | – | inconclusive: 2.51 µM [inhibitor, full curve]
54 | CC1CCCCN1S(=O)(=O)c1ccc(C(=O)Nc2ccccc2-c2nc3ccccc3s2)cc1 (stereo not drawn) | inactive: 7.65% | –
55 | OCCOCCNc1ncnc2c1cnn2-c1ccc(Cl)cc1 | – | inconclusive: 35.5 µM [inhibitor, single point]
56 | O=C(Nc1cccc([N+](=O)[O-])c1)c1ccc2ccccc2c1O | – | inconclusive: 17.8 µM [inhibitor, partial curve, poor fit]
57 | N#Cc1ccccc1CN1C(=O)NC(Cc2c[nH]c3ccccc23)C1=O (stereo not drawn) | – | inconclusive: 11.2 µM [inhibitor, partial curve, poor fit]
58 | COC(=O)c1cccc(NC(=O)Cc2ccc(OC)cc2)c1C | – | inconclusive: 14.6 µM [inhibitor, partial curve, poor fit]
59 | CC(C)(C)N(C=C(Cl)Cl)C(=O)NC1CCCCC1 | – | inconclusive: 7.08 µM [activator, full curve, poor fit]
60 | CC1CCC/C(=C(\C#N)c2nc(-c3cc4ccccc4oc3=O)cs2)C1 (stereo not drawn) | inactive: 14.2% | –
61 | CCN(CC)c1ccc(-c2nn3c(-c4ccccc4OC)nnc3s2)cc1 | – | inconclusive: 0.562 µM [inhibitor, full curve, poor fit]
62 | CC1CCC2(CC1)NC(=O)N(CC(=O)NCc1ccc(Cl)cc1)C2=O (stereo not drawn) | inactive: 0% [at 46.1 µM] | –
63 | O=C(O)c1ccc(-n2c(O)c(/C=C3\C=Nc4ccccc43)c(=O)[nH]c2=O)cc1 | inactive: 14.9% [at 46.1 µM] | –
64 | O=C(NC1=NCCS1)c1ccccc1F | – | inconclusive: 3.55 µM [activator, full curve, poor fit]
65 | COc1ccc(N=C2NC(=O)/C(=C/c3ccc(O)c(OC)c3)S2)cc1 | – | active: 3.66 µM
66 | CC(C)C1Cc2c(sc3c2c(=O)n(Cc2ccccc2)c2nncn32)CO1 (stereo not drawn) | – | inconclusive: 0.398 µM [inhibitor, full curve, poor fit]
67 | CCCC(=O)NC(c1ccccc1OC)c1ccc2cccnc2c1O (stereo not drawn) | – | inconclusive: 3.16 µM [inhibitor, full curve, poor fit]
68 | S=C(Nc1ccc(CN2CCCCC2)cc1)Nc1cccc(Cl)c1Cl | – | inconclusive: 5.62 µM [activator, single point]

From compound 59 as far as 62, as listed above:
Row | Compound | activity change, negative = inhibition | Potency
59 | CC(C)(C)N(C=C(Cl)Cl)C(=O)NC1CCCCC1 | – | inconclusive: 7.08 µM [activator, full curve, poor fit]
60 | CC1CCC/C(=C(\C#N)c2nc(-c3cc4ccccc4oc3=O)cs2)C1 (stereo not drawn) | inactive: 14.2% | –
61 | CCN(CC)c1ccc(-c2nn3c(-c4ccccc4OC)nnc3s2)cc1 | – | inconclusive: 0.562 µM [inhibitor, full curve, poor fit]
62 | CC1CCC2(CC1)NC(=O)N(CC(=O)NCc1ccc(Cl)cc1)C2=O (stereo not drawn) | inactive: 0% [at 46.1 µM] | –
